Data from PubChem BioAssay AID493014 (National Center for Advancing Translational Sciences (NCATS), 2011).
This is one part of the list. These are further read-outs of the screen, such as a control signal, another cell line or another target. No call is given for them. Most of these compounds were active or inconclusive in the main read-out, so they are no random draw. The note in brackets gives the kind of curve behind each potency; many fits are weak.

Assay: qHTS Assay to Find Inhibitors of Chronic Active B-Cell Receptor Signaling
Conditions: ABC-DLBCL IkBa-CBG/CBR reporter, luminescence ratio (green luciferase fused to IkBa over red control in TMD8 lymphoma cells), 4 h
In short: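 Cell line TMD8 (human ABC DLBCL), stably expressing tet-inducible CBG68-IkBa fusion and CBR; IMDM/0.5% FBS; cpd up to 46 uM; dox induction, 4 h, 37C/5% CO2; dual luminescence; green/red ratio; MG132 control.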

[1] = measured here: CBR red luminescence, cell number
[2] = measured here: IkBa-CBG green luminescence

Row | SMILES | AC50 [1] | AC50 [2]
1 | CCOc1ncccc1C(=O)NCCc1c[nH]c2ccccc12 | 0.708 µM [falling, full curve, poor fit] | –
2 | COc1cc(O)c(C(=O)/C=C/c2ccccc2)c(OC)c1 | 12.6 µM [falling, single point] | 12.6 µM [rising, partial curve, poor fit]
3 | Cc1csc(=NC(=O)c2ccccc2)n1C | 6.51 µM [rising, single point] | –
4 | Cc1ccc2c(N)c(C#N)sc2n1 | 5.17 µM [falling, partial curve] | –
5 | N/C(Cc1cccc2ccccc12)=N\OC(=O)COc1ccccc1 | 2.31 µM [rising, partial curve, poor fit] | –
6 | CC1(C)C(=O)OC(c2cccn2-c2cccc([N+](=O)[O-])c2)C2(CCCCC2)C1=O (stereo not drawn) | 29.1 µM [falling, single point] | –
7 | COc1ccc(OC)c(-c2cc(C3CCN(c4cc(Cl)nc(N)n4)CC3)[nH]n2)c1 | 3.55 µM [falling, partial curve, poor fit] | –
8 | Cc1ccc(S(=O)(=O)N2CC=C(C(=O)NCCC(C)C)CC2)cc1 | 11.2 µM [rising, partial curve, poor fit] | –
9 | O=C(NN=C1CCCCCC1)c1ccc(Cl)s1 | 5.62 µM [falling, full curve] | –
10 | Cc1cc(Nc2ccc([N+](=O)[O-])cc2)nc2ccccc12 | 3.16 µM [rising, full curve] | –
11 | Cc1cc(C)nc(SCc2nc(N)nc(-c3ccccc3O)n2)n1 | 32.6 µM [falling, single point] | –
12 | Cc1cccn2c(=O)c(/C=C3\SC(=S)NC3=O)c(NCCCN3CCOCC3)nc12 | 6.31 µM [rising, full curve, poor fit] | –
13 | Cc1cc(C)nc(S/C=C/C(=O)c2ccccc2)n1 | 35.5 µM [falling, single point] | –
14 | CCOC(=O)c1c(CSC(=N)N)n(-c2ccc(C)cc2)c2cc(Br)c(OC(C)=O)cc12 | 20 µM [rising, single point] | –
15 | CN1CCc2nc(SCC(=O)Nc3ccc(OC(F)(F)F)cc3)c(C#N)c(-c3cccs3)c2C1 | 2.59 µM [falling, full curve, poor fit] | –
16 | C=CCC(NC(C)c1ccccc1)c1ccco1 (stereo not drawn) | 20 µM [falling, single point] | –
17 | CC(=O)c1sc(NC(=O)C2CSC3(C)CCC(=O)N23)nc1-c1ccccc1 (stereo not drawn) | 0.82 µM [falling, partial curve, poor fit] | 9.2 µM [rising, partial curve, poor fit]
18 | O=C(Nc1ccc2ccccc2c1)/C(=C\c1ccc2c(c1)OCO2)NC(=O)c1ccco1 | 18.4 µM [rising, partial curve, poor fit] | –
19 | CCc1c(C#N)c(N)nc(SCC(=O)OCc2ccccc2)c1C#N | 3.55 µM [rising, full curve, poor fit] | –
20 | Cc1cc(C)cc(NC(=O)CSc2ccc(-c3ccccn3)nn2)c1 | 35.5 µM [rising, single point] | –

One compound at a time (already shown).
Cc1cc(C)nc(SCc2nc(N)nc(-c3ccccc3O)n2)n1 is listed with AC50 [1]: 32.6 µM [falling, single point]
Cc1csc(=NC(=O)c2ccccc2)n1C is listed with AC50 [1]: 6.51 µM [rising, single point]

(continued)

Row | SMILES | AC50 [1] | AC50 [2]
21 | Cc1cccc(NC(=O)c2cc([N+](=O)[O-])ccc2NC2CCCCC2)c1 | 29.1 µM [rising, single point] | –
22 | Cc1ccc(C(=O)/C=C/c2c(C)nn(-c3ccccc3)c2Cl)cc1 | 0.00411 µM [rising, full curve, poor fit] | –
23 | C/C(=N\NC(=O)c1ccc(N/N=C(\C)c2ccncc2)cc1)c1ccncc1 | 15.8 µM [falling, partial curve, poor fit] | –
24 | C=CCn1c(O)c(C=Nc2ccccc2)sc1=S | 8.91 µM [falling, single point] | –
25 | CC(C)(C)C(=O)Nc1nc2c(c(=O)[nH]1)CCCC2 | 15.8 µM [falling, partial curve, poor fit] | –
26 | Cc1cc(NS(=O)(=O)c2ccc(NC(=O)COc3c(C)cc(Br)cc3C)cc2)no1 | 2.24 µM [falling, partial curve, poor fit] | –
27 | CCN(CC)CCn1c2ccccc2c2nc3ccccc3nc21 | 17.8 µM [falling, single point] | –
28 | O=[N+]([O-])c1cccc(-c2cn3ccccc3n2)c1 | 12.6 µM [rising, partial curve] | –
29 | COc1cc2c(cc1OC)CN(C(=O)CN1C(=O)c3ccc([N+](=O)[O-])cc3C1=O)CC2 | 29.1 µM [rising, single point] | –
30 | CC(C)(C)c1ccc(-c2noc(CCC(=O)NCc3ccco3)n2)cc1 | 11.2 µM [falling, partial curve] | –
31 | CCC(C)[C@@H](N)C(=O)N/N=C/c1ccc2ncccc2c1 (stereo partly drawn) | 0.92 µM [rising, full curve, poor fit] | –
32 | O=[N+]([O-])c1ccc(O)c2ncccc12 | 2.82 µM [falling, single point] | 3.26 µM [falling, partial curve]
33 | CC(C)NC(=O)c1onc(CSc2ccc(F)c(F)c2)c1C(=O)O | 15.8 µM [falling, single point] | –
34 | COc1ccc(OC)c(CCNC(=O)Cn2sc3nc(C)cc(C)c3c2=O)c1 | 29.1 µM [falling, single point] | –
35 | Cc1nn2c(=O)c3c4c(sc3nc2n1-c1ccccc1)COC(C)(C)C4 | 0.316 µM [rising, full curve] | –
36 | COc1ccccc1NC(=O)c1cc(C(=O)O)ccc1C(=O)O | 35.5 µM [falling, partial curve, poor fit] | –
37 | COc1ccc(Nc2cc(NCCCO)c([N+](=O)[O-])c3nonc23)cc1 | 0.501 µM [rising, full curve, poor fit] | –
38 | Cc1cc(C)nc(SCC(=O)Nc2ccc(N3CCOCC3)c(Cl)c2)n1 | 18.4 µM [rising, partial curve, poor fit] | –
39 | CCOc1ccc(OCCC(=O)NNC(=O)c2ccncc2)cc1 | 29.1 µM [rising, single point] | –
40 | CC(C)c1ccc(S(=O)(=O)N2CCN(CCC(=O)Nc3ccc(N(C)C)cc3)CC2)cc1 | 32.6 µM [rising, partial curve, poor fit] | –
